This is one part of the list. Shown are side measurements of this screen, not its main read-out; they come without a call. Most of these compounds were active or inconclusive in the main read-out, so they are no random draw. Potencies come from curve fits of mixed quality, noted in brackets. Square brackets hold non-standard residues; d marks the D form. Peptide text beside a SMILES is read from it. * marks the point of attachment. ξ: configuration not given here. Cbz = O=C(OCc1ccccc1)*; ξP = O=C(O)C1CCCN1
Assay: qHTS Assay to Find Inhibitors of Chronic Active B-Cell Receptor Signaling
Details: ABC-DLBCL IkBa-CBG/CBR reporter, luminescence ratio (green luciferase fused to IkBa over red control in TMD8 lymphoma cells), 4 h
Procedure, shortened: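 Concentration-response series (up to 46 uM) were applied to TMD8 dual-reporter cells for 4 h at 37C with doxycycline. Green/red ratio, after filter-overlap correction, defined %Activity; red signal alone was normalised to basal cells and zero luminescence.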

[1] = measured here: CBR red luminescence, cell number
[2] = measured here: IkBa-CBG green luminescence

| SMILES | AC50 [1] | AC50 [2] |
| --- | --- | --- |
| Cc1cc(C)n2nc(C(=O)Nc3cccc(S(=O)(=O)N4CCCC4)c3)nc2n1 | 0.631 µM [rising, partial curve, poor fit] |  |
| C=C(C)COc1ccc2c(C)c(CC(=O)N3C[C@H]4C[C@@H](C3)c3cccc(=O)n3C4)c(=O)oc2c1 | 1.58 µM [rising, full curve] |  |
| Nc1nnc(SCc2ccc(Cl)cc2)s1 | 20.6 µM [rising, partial curve, poor fit] |  |
| Cc1ccc(-c2noc(CNc3ccccc3)n2)cc1 | 0.146 µM [rising, full curve] |  |
| C/C(=N\N1CCN(Cc2ccc(Cl)cc2)CC1)c1ccc([N+](=O)[O-])cc1 | 5.62 µM [falling, single point] |  |
| COc1ccccc1NC(=O)CC(=O)c1ccccc1 | 35.5 µM [falling, single point] |  |
| Cn1cccc1C(=O)NCC1COc2ccccc2O1 (configuration not stated) | 25.9 µM [falling, single point] |  |
| Cc1ccc(C)c(NC(=O)CSc2nc(=O)n(CCN(C)C)c3c2CCC3)c1 | 3.16 µM [falling, single point] |  |
| O=C(CSc1nnc2c(n1)[nH]c1ccccc12)NC1CCCCC1 | 35.5 µM [rising, partial curve, poor fit] |  |
| COc1ccccc1C1CC(c2cccs2)=Nc2ccccc2S1 (configuration not stated) | 20.6 µM [falling, single point] |  |
| COc1cccc2sc(N(Cc3cccnc3)C(=O)COc3ccccc3)nc12 | 22.4 µM [falling, partial curve, poor fit] |  |
| COC(=O)[C@]1(C)N[C@H](c2ccc(-c3cccc(Cl)c3)c(OC)c2)[C@@H]2C(=O)N(C)C(=O)[C@@H]21 | 32.6 µM [falling, single point] |  |
| CN(C)c1nc2c(c(N)nn2-c2ccc(Cl)cc2)c(=O)o1 | 0.112 µM [falling, full curve, poor fit] |  |
| OC(COCc1ccc(Cl)cc1)CN1CCc2ccccc2C1 (configuration not stated) | 0.103 µM [rising, full curve] |  |
| COCCSc1ccccc1C(=O)Nc1cc(C)cc(C)c1 | 31.6 µM [rising, single point] |  |
| CCOC(=O)C1=C(C)NC2=C(C(=O)CCC2)C1c1cccnc1 (configuration not stated) | 0.0058 µM [rising, full curve, poor fit] |  |
| CCc1nnc(NS(=O)(=O)c2ccc(NC(=O)COc3ccc4ccccc4c3)cc2)s1 | 10 µM [falling, partial curve] |  |
| O=C(C1CC1)N1CCN(c2nc3ccccc3s2)CC1 | 2.51 µM [rising, partial curve, poor fit] |  |
| CSCCC(NC(=O)c1ccccc1)C(=O)N1CC=C(c2ccccc2)CC1 (configuration not stated) | 7.08 µM [falling, partial curve] |  |
| O=C(O)CSCC(=O)NCc1c(Cl)cccc1Oc1ccccc1 | 7.94 µM [rising, partial curve] |  |
| COc1ccc(C(C)=O)c2c1OCCO2 | 5.62 µM [falling, single point] |  |
| CCN1C(=NCC2CC2)N[C@@H](c2cccc(C(F)(F)F)c2)C(C(=O)OC)=C1C | 17.8 µM [falling, single point] |  |

Two consecutive compounds already listed, for reference:

| SMILES | AC50 [1] | AC50 [2] |
| --- | --- | --- |
| CCOC(=O)C1=C(C)NC2=C(C(=O)CCC2)C1c1cccnc1 (configuration not stated) | 0.0058 µM [rising, full curve, poor fit] |  |
| CCc1nnc(NS(=O)(=O)c2ccc(NC(=O)COc3ccc4ccccc4c3)cc2)s1 | 10 µM [falling, partial curve] |  |

(cont.)

| SMILES | AC50 [1] | AC50 [2] |
| --- | --- | --- |
| CC(NC(=O)CN1C(=O)c2ccccc2C1=O)c1ccccc1 (configuration not stated) | 35.5 µM [rising, partial curve, poor fit] |  |
| CCC(Oc1ccccc1C)C(=O)Nc1ccc(S(=O)(=O)Nc2cc(C)on2)cc1 (configuration not stated) | 35.5 µM [falling, partial curve, poor fit] |  |
| CCOC(=O)c1c(C=O)c(C)n(Cc2ccccc2)c1C | 18.4 µM [rising, partial curve] | 20.6 µM [falling, partial curve] |
| Cc1nn(C)c(C(=O)NC(=S)Nc2ccccc2Br)c1Cl | 6.31 µM [rising, partial curve, poor fit] |  |
| Brc1cc2c(cc1/C=N/Nc1nc3ccccc3s1)OCO2 | 0.2 µM [rising, full curve, poor fit] |  |
| Cc1cccc(NC(=O)COC(=O)c2ccc(C)c(S(=O)(=O)N3CCCCC3)c2)c1 | 4.61 µM [falling, full curve] |  |
| CN1C(=O)C(C)(C)c2cc(S(=O)(=O)N3CCCC(C(=O)NCc4ccc(Cl)cc4)C3)ccc21 (configuration not stated) | 2.51 µM [falling, partial curve, poor fit] |  |
| CCCCCCn1c(=O)[nH]c2nc3cc(N)c(C)cc3nc2c1=O | 25.9 µM [rising, partial curve] |  |
| NNC(=O)CN1CCCc2ccccc21 | 14.1 µM [rising, single point] |  |
| O=C(COc1ccc(Br)cc1Br)NNC(=O)c1cccs1 | 2 µM [rising, partial curve, poor fit] |  |
| COc1ccc(C2OC(=O)CC2C(=O)NCc2ccc(Cl)cc2)cc1OC (configuration not stated) | 12.6 µM [rising, single point] |  |
| CC(Oc1ccccc1Cl)C(=O)N1CCOCC1 (configuration not stated) | 29.1 µM [rising, single point] |  |
| CC12CC(NC(=O)N1c1cccc(C(=O)N3CCN(c4ccccc4F)CC3)c1)c1ccccc1O2 (configuration not stated) | 0.461 µM [falling, full curve] |  |
| O=C(CCN1CCN(c2ccccc2)CC1)c1ccc(Br)cc1 | 35.5 µM [falling, single point] | 35.5 µM [rising, partial curve, poor fit] |
| CC(C)(C)n1nnnc1SCC(=O)Nc1nn(-c2ccccc2)nc1C(N)=O | 0.501 µM [falling, full curve, poor fit] |  |
| Cc1c(NC(=O)COC(=O)c2cccn2C)c(=O)n(-c2ccccc2)n1C | 29.1 µM [rising, single point] |  |
| C=CCSc1nc(N)c(C#N)c(-c2ccccc2)c1C#N | 0.501 µM [rising, full curve] |  |
| O=C(CCN1C(=O)C2C3CCC(C3)C2C1=O)Nc1ccc(Cl)cc1Cl (configuration not stated) | 5.62 µM [falling, single point] |  |
| CCOC(=O)c1csc(NC(=O)c2ccc(N3C(=O)CCC3=O)cc2)n1 | 5.62 µM [falling, full curve, poor fit] |  |
| Cc1cc(C)n(S(=O)(=O)/C=C/c2ccccc2)n1 | 15.8 µM [falling, single point] |  |
| CN(Cc1ccc(Br)cc1)CC(O)COc1cccc(Br)c1 (configuration not stated) | 11.2 µM [falling, partial curve] |  |
| Cc1cc(C)nc(NC(=S)Nc2cccc(F)c2)c1 | 0.1 µM [rising, full curve, poor fit] |  |

Structures from the list above that have an NH in an aromatic ring (2):

| SMILES | AC50 [1] | AC50 [2] |
| --- | --- | --- |
| O=C(CSc1nnc2c(n1)[nH]c1ccccc12)NC1CCCCC1 | 35.5 µM [rising, partial curve, poor fit] |  |
| CCCCCCn1c(=O)[nH]c2nc3cc(N)c(C)cc3nc2c1=O | 25.9 µM [rising, partial curve] |  |

Following part.

| SMILES | AC50 [1] | AC50 [2] |
| --- | --- | --- |
| O=C(/C=C/c1ccc(Cl)cc1)NC(=S)Nc1ccc(N2CCOCC2)c(Cl)c1 | 14.6 µM [falling, partial curve, poor fit] |  |
| COc1cccc(C(=O)NN2C(=S)N(c3ccccc3)C(=O)C2CC(N)=O)c1 (configuration not stated) | 7.08 µM [falling, partial curve] |  |
| CC(=O)Nc1ccc(Nc2cc(-c3ccccc3)nc3ncnn23)cc1 | 11.2 µM [falling, partial curve, poor fit] |  |
| COc1ccc(C(=O)Nc2cccc(C(C)=O)c2)c(OC)c1OC | 14.6 µM [falling, single point] |  |
| CCC1CCCCN1Cc1nc2c(c(=O)n(C)c(=O)n2C)n1CCC(C)C (configuration not stated) | 0.146 µM [rising, full curve, poor fit] |  |
| CCOC(=O)CSc1nnc2c(n1)C1(C)CCC2C1(C)C (configuration not stated) | 3.55 µM [rising, single point] |  |
| COc1ccc(C=NNc2ccc(S(=O)(=O)Nc3ccccc3C(=O)O)cc2[N+](=O)[O-])c(OC)c1 | 5.8 µM [rising, single point] |  |
| COc1ccc(CNc2ccc([N+](=O)[O-])cn2)cc1 | 4.47 µM [rising, partial curve] |  |
| Cn1c(C(=O)OCC(=O)NCc2ccc(F)cc2)cc2occc21 | 23.1 µM [rising, partial curve, poor fit] |  |
| O=C(NNC(=O)c1ccccc1Cl)c1ccc2c(=O)n3c(nc2c1)CCC3 | 16.4 µM [falling, partial curve, poor fit] |  |
| O=C(COC(=O)CSc1ccccc1)Nc1ccc(F)cc1F | 29.1 µM [rising, single point] |  |
| COc1ccc(CCn2c(N)cc(=O)[nH]c2=S)cc1OC | 0.92 µM [rising, full curve, poor fit] | 23.1 µM [falling, partial curve] |
| CCN(CC)S(=O)(=O)c1ccc(/C=C/C(=O)Nc2ccccc2N2CCOCC2)cc1 | 2 µM [rising, partial curve, poor fit] |  |
| COc1cc(OC)cc(C(=O)NCc2n[nH]c(=S)n2-c2ccccc2OC)c1 | 0.366 µM [falling, full curve] |  |
| O=C(CN1CCC(O)(c2ccc3c(c2)OCO3)CC1)OC1CCCCC1 | 1.03 µM [falling, full curve, poor fit] |  |
| CCN(CC)c1ccc(Nc2cc3n(c(=O)n2)CCc2cc(OC)c(OC)cc2-3)cc1 |  | 7.08 µM [falling, partial curve] |
| COC(=O)CNC(=O)C1CCCN1C(=O)CNC(=O)OCc1ccccc1 (stereo not drawn) (Cbz-Gly-[ξP]-Gly-OMe) | 3.55 µM [rising, partial curve, poor fit] |  |
| Nc1c(N(CCO)C(=O)C2CCCCC2)c(=O)[nH]c(=O)n1Cc1ccccc1 | 3.55 µM [rising, partial curve, poor fit] |  |
| O=C(Nc1nnc(-c2ccccn2)o1)c1ccc(Br)cc1 | 10.3 µM [falling, partial curve] |  |
| CC(NC(=O)c1ccco1)C(=O)N1CCc2ccccc2C1 (configuration not stated) | 16.4 µM [falling, single point] |  |

Reference: PubChem BioAssay AID493014 (National Center for Advancing Translational Sciences (NCATS), 2011)
